This note sets out measurements from publication PMC7819943, “Rice protein-binding microarrays: a tool to detect cis-acting elements near promoter regions in rice”.

Chains of the proteins cited; added tags and fusions are not shown.
UniProt Q0JBA9, entry or part of it: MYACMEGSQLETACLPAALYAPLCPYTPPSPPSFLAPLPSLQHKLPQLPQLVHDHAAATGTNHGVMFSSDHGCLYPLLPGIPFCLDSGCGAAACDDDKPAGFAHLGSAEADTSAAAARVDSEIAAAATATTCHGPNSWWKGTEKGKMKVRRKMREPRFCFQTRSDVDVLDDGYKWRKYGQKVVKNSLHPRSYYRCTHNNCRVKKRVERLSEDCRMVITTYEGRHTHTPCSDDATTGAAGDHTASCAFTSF

The list shows a part of the results.

The target in this test is OsWRKY34 (Oryza sativa, UniProt Q0JBA9 1-250). The test is described as follows: protein-binding microarray (RPBM); PBS, 2% BSA, 51.3 ng/ul salmon testes DNA, 50 uM zinc acetate, 200 nM TF, 25 C, 1 h; high values mean tight binding. The following applies: protein: recombinant; tags: N-terminal polyhistidine and DsRed monomer fusion (pET32a); label: CyDye5-dUTP incorporated in the synthesized complementary strand; 3' TTTTT single-stranded linker to array surface; dsDNA, one strand shown. Summed up: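 Ni–NTA purification followed expression in E. coli BL21-CodonPlus of transcription factors fused N-terminally to a polyhistidine tag and DsRed. At 200 nM in PBS with 2% BSA, salmon testes DNA and 50 µM zinc acetate, the protein was incubated for 1 h at 25 °C with a custom Agilent array that had been primer-extended with Cy5-dUTP and blocked with 2% BSA. After washing, the array was read on an Axon 4000B scanner. The binding signal is per-feature fluorescence intensity in arbitrary units.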
With “GGAGCATGTTCAACCATTCATTGTTTTCTCTATTGCATAACGGAGTCACCTAGTGCAG”, the binding signal is 8070 fluorescence intensity (a.u.).

Regarding “TTCCATACGCTGACCTTCTCATTTACCTCTTAGCTTATTACGGAGTCACCTAGTGCAG”, the binding signal was 8230 fluorescence intensity (a.u.).

Turning to “CTTTGGTTGCTGTCCCAACACGATAGCCCCTTGAGTGCTACGGAGTCACCTAGTGCAG”, the binding signal was 8140 fluorescence intensity (a.u.).

For “TCCTGATATGTACCTTCCGATTTTATCTTTAATTTCTTTTCGGAGTCACCTAGTGCAG”, the binding signal is 12000 fluorescence intensity (a.u.).

For the sequence “AAGTTATCTCATATATTTGAATTTCATTTTATTTTGTTACCGGAGTCACCTAGTGCAG”, the binding signal is 8140 fluorescence intensity (a.u.).

“GTTCATTCGTACGTTAGTTGTAAGTATTCTATTTGCTGCACGGAGTCACCTAGTGCAG”: the binding signal was 9640 fluorescence intensity (a.u.).

For “TTACTTATACCACAGCTCGAATCCGTTCCAAACCAGGCCACGGAGTCACCTAGTGCAG”, the binding signal was 9230 fluorescence intensity (a.u.).

Consider “CCGTGTCGTTGCCGGTGCGCATATGGCAGTTGCCGGTCTCCGGAGTCACCTAGTGCAG”, for which the binding signal was 9810 fluorescence intensity (a.u.).

With “CTTTTTACACATATTTGACCGTTCATCTTATTCAAAAACTCGGAGTCACCTAGTGCAG”, the binding signal was 8160 fluorescence intensity (a.u.).

On to “CTCATTCCTCATTATTTCTATATTCCCTCACACTATTTATCGGAGTCACCTAGTGCAG”, for which the binding signal is 8580 fluorescence intensity (a.u.).

With “CTGGTTTTACCGTTCATCTTTTTACCTAGATAACTTCTTGCGGAGTCACCTAGTGCAG”, the binding signal is 8330 fluorescence intensity (a.u.).

Turning to “TTCTTTTACACGGGTCCAACTTATTCATACATGTCACTGCCGGAGTCACCTAGTGCAG”, the binding signal is 8960 fluorescence intensity (a.u.).

For the sequence “TTTCCTCTGGATCCTGGCATTTTGCATTGTCGTTTGCCGTCGGAGTCACCTAGTGCAG”, the binding signal is 8630 fluorescence intensity (a.u.).

On to “CCTACTTTTTCAGTTTTGTTTATTTGATCCCGTTTTTTAACGGAGTCACCTAGTGCAG”, for which the binding signal was 8250 fluorescence intensity (a.u.).

As for “GGTTCTCGTGCTATTGTTCTCTACTGTTTTTCCTAAATTTCGGAGTCACCTAGTGCAG”, the binding signal is 8450 fluorescence intensity (a.u.).

On to “CTTGACTTCTTATTCTATATGCACTCAATATCTTCAAGTTCGGAGTCACCTAGTGCAG”, for which the binding signal was 8120 fluorescence intensity (a.u.).

Consider “GTAATTTATTGTCTATTATGGTTTTTCTTAATTGCTTTTTCGGAGTCACCTAGTGCAG”, for which the binding signal was 9890 fluorescence intensity (a.u.).

“ATCGTATTGGGTTCTTATATGGAAACTTCTTCCAATATTGCGGAGTCACCTAGTGCAG”: the binding signal was 8180 fluorescence intensity (a.u.).

As to “CACCAGGACTTTATTGATTTGTGGCTATCCAAATGTTGGGCGGAGTCACCTAGTGCAG”, the binding signal is 8210 fluorescence intensity (a.u.).

For the sequence “TATATACTCCTACTCTTGCGCCTTTTCTCCTTCGAAATAGCGGAGTCACCTAGTGCAG”, the binding signal is 8260 fluorescence intensity (a.u.).

For “ACAACACACAAAGGGACAAACACAGATCAGCCGTTCATCTCGGAGTCACCTAGTGCAG”, the binding signal is 10600 fluorescence intensity (a.u.).

“CCAACCGATCATAATCCTCCACCATTCACTTTTCCCATATCGGAGTCACCTAGTGCAG”: the binding signal is 8730 fluorescence intensity (a.u.).

With “ACTTGGGTATGTTTCCACTGAATATATTCTGTTGGAGATCCGGAGTCACCTAGTGCAG”, the binding signal is 8020 fluorescence intensity (a.u.).

Regarding “CCTTTTTTCCCGATGGCACTAACGCACGTATACATGTTTTCGGAGTCACCTAGTGCAG”, the binding signal is 9890 fluorescence intensity (a.u.).

For “TCCATGCATGAGCTCTCGTTGTTGCAGCGGTACTGTGTCTCGGAGTCACCTAGTGCAG”, the binding signal is 9540 fluorescence intensity (a.u.).

With “CAGGACTACCCCTGGCTACGCCCTGTCTTTAACAATATTCCGGAGTCACCTAGTGCAG”, the binding signal was 8920 fluorescence intensity (a.u.).

For the sequence “AGGTGGACTGTTGGTCTATACATACACGTACTTATTCAATCGGAGTCACCTAGTGCAG”, the binding signal was 8660 fluorescence intensity (a.u.).

“CAATCTTCCCGACCCAGCAAGCTTCTTCTTCCCTTGGGTCCGGAGTCACCTAGTGCAG”: the binding signal is 8610 fluorescence intensity (a.u.).

Turning to “CTTACCATCTCCCCAAGCGGGAGAGTGGACGTCATAATTTCGGAGTCACCTAGTGCAG”, the binding signal was 8220 fluorescence intensity (a.u.).

Regarding “TACATGATCATCTGTTGCAACACACATATACTTGCTTGTACGGAGTCACCTAGTGCAG”, the binding signal was 8140 fluorescence intensity (a.u.).

Regarding “GACAAATTTAGTATTCTCTGAAATTTCACCACACTTTCCACGGAGTCACCTAGTGCAG”, the binding signal was 8460 fluorescence intensity (a.u.).

For “GCCGATTCGTTTCATTCACCGGATCTCTTGCGTCCGCCTCCGGAGTCACCTAGTGCAG”, the binding signal was 9510 fluorescence intensity (a.u.).

As to “GCCTTTGTGTCACCCAGCTAGCTAGCCATCGCGCGCGATGCGGAGTCACCTAGTGCAG”, the binding signal is 8700 fluorescence intensity (a.u.).

Turning to “GGAGGGAGGGTGGGGCGCGCACCTGGCCAACCACTACTCGCGGAGTCACCTAGTGCAG”, the binding signal is 9900 fluorescence intensity (a.u.).

As to “CGCCGACCCGCCGTACATGCTGCCCTCAAACAGCACCTGCCGGAGTCACCTAGTGCAG”, the binding signal is 8310 fluorescence intensity (a.u.).

Turning to “CATGTCTTGTGTGTGTTTCTATAAGCCTCTATTCCACCAACGGAGTCACCTAGTGCAG”, the binding signal was 9380 fluorescence intensity (a.u.).

Consider “TCCATGAGCCACGTGATATACTCTCTGTGTGTGTGTTTGCCGGAGTCACCTAGTGCAG”, for which the binding signal was 8590 fluorescence intensity (a.u.).

For “TTTGCAATTTTTTTCCATGGCTATTGCTAACCGAATCGGACGGAGTCACCTAGTGCAG”, the binding signal was 8320 fluorescence intensity (a.u.).

With “TTGTGATTCTTTTTTTTATGTTTCAACCAATGTATTTTGACGGAGTCACCTAGTGCAG”, the binding signal was 8160 fluorescence intensity (a.u.).

For the sequence “GAATCATATCAATTCTTTTCTTCTTTCTTTTTTTGCGGGGCGGAGTCACCTAGTGCAG”, the binding signal is 12100 fluorescence intensity (a.u.).

For “AAGAGCACCGCATTTTCTACGCTTTTTCTTTGTTTTTTTTCGGAGTCACCTAGTGCAG”, the binding signal was 11700 fluorescence intensity (a.u.).

Consider “GCCGCCGGGCGCGTTCCTCTCACCGTGCGCGCGACTCCTCCGGAGTCACCTAGTGCAG”, for which the binding signal was 11100 fluorescence intensity (a.u.).

For the sequence “TGGCATTTTTGGCTTTGCTTCTCTTCTCTTCCTTTGCTTTCGGAGTCACCTAGTGCAG”, the binding signal is 8580 fluorescence intensity (a.u.).

With “CATACGCACACACCTCTACGCATGCAACACCACTCTCACTCGGAGTCACCTAGTGCAG”, the binding signal is 8800 fluorescence intensity (a.u.).

Take “GCTTAATTTATTTGTTTCCATTTTTATTTTTAATTTTTTTCGGAGTCACCTAGTGCAG”: the binding signal is 11300 fluorescence intensity (a.u.).

On to “GGGTATTGTAGTAACTTCCTGTGCACCATCGGGGTTAAGACGGAGTCACCTAGTGCAG”, for which the binding signal is 10500 fluorescence intensity (a.u.).

On to “TGCTTGATATCAATCAACCCAGTTCAACTGTTTTTAATGTCGGAGTCACCTAGTGCAG”, for which the binding signal was 8390 fluorescence intensity (a.u.).

For the sequence “CTAGTTCAGATGCTCGCCACTTTGCCATTTGAGCATTTTTCGGAGTCACCTAGTGCAG”, the binding signal is 10200 fluorescence intensity (a.u.).

As to “TATTTGGTTTTGTAGGGGTTGGTTTGGGAAAATTGGAAAGCGGAGTCACCTAGTGCAG”, the binding signal was 16400 fluorescence intensity (a.u.).

For the sequence “ACATCATGTCTGTGTCACATCCACTTAAAATATCTTATATCGGAGTCACCTAGTGCAG”, the binding signal is 9450 fluorescence intensity (a.u.).

As to “CCGTGTCTTCATCCTTGATCCTCCACACTCTCTTTCCCTTCGGAGTCACCTAGTGCAG”, the binding signal was 10300 fluorescence intensity (a.u.).

For “TTACCATGCCATATTTGACATTCCAAGCCATTAGCTTCCGCGGAGTCACCTAGTGCAG”, the binding signal was 9330 fluorescence intensity (a.u.).

For “TCCCTTCCTCGCTTCCACCCAATCTTTCGCTAATTCGTTTCGGAGTCACCTAGTGCAG”, the binding signal is 9350 fluorescence intensity (a.u.).

On to “TTTTGGGGTTGGTCTTGCCTTCCATAGGTATCTCTCCACGCGGAGTCACCTAGTGCAG”, for which the binding signal was 8950 fluorescence intensity (a.u.).
